Source: patent US9914781
These are yes or no findings as the source states them, for the method shown. Some binding calls cover weakened binding; strength is not graded here.

Molecular target: cynomolgus TrkB receptor (cynomolgus)
Experiment: recombinant TrkB in a heterologous cell line, primary cells or human iPSC derived cells

- binding: binds
B1: 1G11 (murine TrkB agonist monoclonal antibody) (antibody, V domains shown)
VH: QVQLQQSGDDLVKPGASVKLSCKASGYTFTSYYINWIKQRPGQGLECIGRIAPGNTYYNEIFKGKAILTVDTSSSTAYIQLSSLSSEDSGVYFCARRGYEGALDYWGQGTSVTVSS
VL: DIVLTQSPATLSVTPGDSVSLSCRASQRISNNLHWYQQKSHESPRLLIKYVSQSISGIPSRFSGSGSGTDFTLSINSVETEDFGMYFCQQSNSWPLTFGAGTKLELKR
